In publication PMC4598080:
Results are given in words; binding and its absence hold for the method and conditions named. Binding seen in cells or lysates may run through a third protein. A yes stands for co-enrichment or nearness to the bait. Other partners may have been found.

Protein sequences, listed by entry. Tags and fused reporters are not part of them. Lines headed by an entry give the natural chain unless they say otherwise; changes in a name come on top. Chains listed by the source or under a name are the forms on record and can include a tag or linker. Residues count along the entry.
UniProt P10664: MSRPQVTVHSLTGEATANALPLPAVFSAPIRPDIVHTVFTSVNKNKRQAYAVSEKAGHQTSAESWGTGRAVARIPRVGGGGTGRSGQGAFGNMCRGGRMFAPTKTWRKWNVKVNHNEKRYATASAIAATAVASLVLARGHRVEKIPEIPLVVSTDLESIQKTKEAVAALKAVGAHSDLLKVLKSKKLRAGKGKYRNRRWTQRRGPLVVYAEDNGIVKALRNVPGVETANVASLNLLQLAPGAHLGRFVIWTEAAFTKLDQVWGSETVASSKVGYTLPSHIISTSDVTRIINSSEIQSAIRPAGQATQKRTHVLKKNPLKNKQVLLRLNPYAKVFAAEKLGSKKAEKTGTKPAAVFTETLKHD
N-terminally TAP-tagged Rpl4a.N291: residues 1-291 of P10664
N-terminally TAP-tagged Rpl4a.N264: residues 1-264 of P10664

Columns and labels:
[1] = target: N-terminally TAP-tagged Rpl4a.N291 (S. cerevisiae) (UniProt P10664); assay: affinity purification with mass spectrometry; tandem-affinity purification of NTAP-Rpl4a.N264 and NTAP-Rpl4a.N291 from whole cell lysates of wild-type yeast; 50 mM Tris-HCl pH 7.5, 100 mM NaCl, 1.5 mM MgCl2, 5% glycerol, 0.1% NP-40; EGTA eluates, SDS-PAGE, Coomassie, bands identified by mass spectrometry
[2] = target: N-terminally TAP-tagged Rpl4a.N264 (S. cerevisiae) (UniProt P10664); assay: as above
[3] = target: N-terminally TAP-tagged full-length Rpl4a (S. cerevisiae) (UniProt P10664); assay: affinity purification with mass spectrometry; tandem-affinity purification of NTAP-Rpl4a, sole Rpl4 source in the RPL4 shuffle strain YBP15, from whole cell lysates; 50 mM Tris-HCl pH 7.5, 100 mM NaCl, 1.5 mM MgCl2, 5% glycerol, 0.1% NP-40; EGTA eluates, Coomassie, mass spectrometry

Measured: binding

B1: Acl4 (Assembly Chaperone of RpL4) (protein, UniProt Q03771 1-387)
chain: MSELEATIRQAKEALAENNAKKALKILKPFKSSLKKENANNVILNEVFADAYLDNGQVEKAYPILARACELDPEGQVGGPDKFFTMGQIMGGQDGVSIITRGIMNISNTGGEMLTNVQVEKIVGGLLSVIEIWMTDLCMEPNAEEQCEELIQKAMELTEGKSPETWSTLGSIKISQQKFGEAYEAFSQAWNFFELKKQEIGSGINENGDTTQKAGLQSEYVDLLQPLLSLTKMCLEVGAYEVALKVIAAVRDIDEDNIEGYYLEGFTYYLMSKLEIFKLNNPEVSLRPENIYEFNQLIQEVPLDLSHEPISQLIYDSRLALSFALQAGVNADSKDEIVQELLGGANALLQEIGGPLDPSELTQIKKGDLVNENEDLEELDIEEEYSD
binds: all assays above
